Results reported in the supplement of paper PMC10849652.
The other results are listed elsewhere or left out.

The chains behind the UniProt entries cited, without tags or fusion partners. Where a name states a change or a piece, a line headed by the entry shows the natural chain unless it says otherwise.
UniProt P54886: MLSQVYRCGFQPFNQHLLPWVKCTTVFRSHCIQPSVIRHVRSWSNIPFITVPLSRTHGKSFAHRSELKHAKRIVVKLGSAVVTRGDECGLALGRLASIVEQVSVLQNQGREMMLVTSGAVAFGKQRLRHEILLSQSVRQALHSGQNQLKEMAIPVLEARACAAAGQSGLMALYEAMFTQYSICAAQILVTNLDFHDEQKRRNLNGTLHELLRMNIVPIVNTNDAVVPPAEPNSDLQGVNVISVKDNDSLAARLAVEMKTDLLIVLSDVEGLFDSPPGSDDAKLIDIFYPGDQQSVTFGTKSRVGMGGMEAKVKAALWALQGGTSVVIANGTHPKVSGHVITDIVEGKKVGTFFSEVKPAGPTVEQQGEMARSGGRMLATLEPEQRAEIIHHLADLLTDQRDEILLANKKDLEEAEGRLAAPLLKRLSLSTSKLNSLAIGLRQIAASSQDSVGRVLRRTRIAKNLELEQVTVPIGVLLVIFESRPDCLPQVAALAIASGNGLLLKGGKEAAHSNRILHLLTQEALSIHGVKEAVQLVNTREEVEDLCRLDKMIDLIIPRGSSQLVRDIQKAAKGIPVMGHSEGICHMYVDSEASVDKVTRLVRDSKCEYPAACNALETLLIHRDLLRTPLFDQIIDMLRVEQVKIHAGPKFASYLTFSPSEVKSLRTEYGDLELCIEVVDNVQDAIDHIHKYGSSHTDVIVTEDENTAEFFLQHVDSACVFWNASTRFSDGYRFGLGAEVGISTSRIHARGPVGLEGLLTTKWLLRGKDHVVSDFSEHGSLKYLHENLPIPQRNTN
UniProt P09972: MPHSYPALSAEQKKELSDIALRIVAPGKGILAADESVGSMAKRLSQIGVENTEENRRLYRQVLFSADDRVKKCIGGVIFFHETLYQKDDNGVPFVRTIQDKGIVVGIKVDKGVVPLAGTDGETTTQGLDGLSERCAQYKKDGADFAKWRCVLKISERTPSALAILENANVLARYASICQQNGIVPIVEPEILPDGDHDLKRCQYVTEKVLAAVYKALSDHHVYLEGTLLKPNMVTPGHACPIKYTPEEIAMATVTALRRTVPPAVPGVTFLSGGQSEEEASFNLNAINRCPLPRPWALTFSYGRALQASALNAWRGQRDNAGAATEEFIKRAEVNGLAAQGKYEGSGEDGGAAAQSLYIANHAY
UniProt Q9Y2T2: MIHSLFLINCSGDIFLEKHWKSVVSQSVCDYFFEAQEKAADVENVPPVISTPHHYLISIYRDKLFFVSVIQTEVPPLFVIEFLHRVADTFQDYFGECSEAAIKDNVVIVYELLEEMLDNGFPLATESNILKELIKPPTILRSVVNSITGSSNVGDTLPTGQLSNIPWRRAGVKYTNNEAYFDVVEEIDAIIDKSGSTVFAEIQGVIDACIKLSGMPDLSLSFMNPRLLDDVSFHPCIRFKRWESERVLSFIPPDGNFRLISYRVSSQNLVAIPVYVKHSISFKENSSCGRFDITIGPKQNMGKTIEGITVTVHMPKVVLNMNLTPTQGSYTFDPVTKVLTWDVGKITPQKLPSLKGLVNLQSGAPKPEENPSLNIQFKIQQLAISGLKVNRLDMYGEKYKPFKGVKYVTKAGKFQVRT
UniProt O00203: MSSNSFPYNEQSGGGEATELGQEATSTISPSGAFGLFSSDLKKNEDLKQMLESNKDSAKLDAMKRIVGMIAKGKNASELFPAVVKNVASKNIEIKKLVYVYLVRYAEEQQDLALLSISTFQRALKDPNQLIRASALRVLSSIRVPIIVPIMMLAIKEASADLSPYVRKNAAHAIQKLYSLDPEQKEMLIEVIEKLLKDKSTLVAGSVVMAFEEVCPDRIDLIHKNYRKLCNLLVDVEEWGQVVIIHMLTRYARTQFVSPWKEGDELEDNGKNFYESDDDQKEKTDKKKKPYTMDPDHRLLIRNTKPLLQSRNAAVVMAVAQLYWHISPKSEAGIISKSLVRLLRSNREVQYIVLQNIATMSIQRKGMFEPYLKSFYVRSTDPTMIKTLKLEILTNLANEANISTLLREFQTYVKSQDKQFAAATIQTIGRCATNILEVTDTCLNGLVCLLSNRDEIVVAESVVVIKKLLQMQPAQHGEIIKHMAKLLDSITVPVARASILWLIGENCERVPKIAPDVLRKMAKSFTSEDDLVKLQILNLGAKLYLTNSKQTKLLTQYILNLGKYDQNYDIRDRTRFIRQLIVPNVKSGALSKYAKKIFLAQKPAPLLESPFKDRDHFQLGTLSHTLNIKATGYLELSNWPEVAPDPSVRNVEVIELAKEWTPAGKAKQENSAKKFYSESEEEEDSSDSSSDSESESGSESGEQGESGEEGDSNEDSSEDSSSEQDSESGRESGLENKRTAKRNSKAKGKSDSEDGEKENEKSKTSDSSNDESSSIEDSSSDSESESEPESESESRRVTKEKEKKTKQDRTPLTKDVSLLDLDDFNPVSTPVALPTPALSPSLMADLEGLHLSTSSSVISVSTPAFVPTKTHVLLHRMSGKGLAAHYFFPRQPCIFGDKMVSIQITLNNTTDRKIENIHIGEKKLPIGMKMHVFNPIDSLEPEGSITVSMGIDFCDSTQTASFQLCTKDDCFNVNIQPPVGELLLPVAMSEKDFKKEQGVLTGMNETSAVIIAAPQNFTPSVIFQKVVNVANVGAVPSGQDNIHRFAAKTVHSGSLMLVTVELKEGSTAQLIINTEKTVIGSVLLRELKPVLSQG
UniProt Q9BTT0: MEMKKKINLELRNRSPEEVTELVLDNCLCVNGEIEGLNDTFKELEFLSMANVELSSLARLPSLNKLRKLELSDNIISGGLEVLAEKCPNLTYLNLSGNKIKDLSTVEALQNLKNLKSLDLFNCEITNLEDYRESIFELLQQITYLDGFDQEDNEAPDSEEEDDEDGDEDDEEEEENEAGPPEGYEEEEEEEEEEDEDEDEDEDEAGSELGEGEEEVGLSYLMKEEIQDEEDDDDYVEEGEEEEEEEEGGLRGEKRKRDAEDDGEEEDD
UniProt Q9NXW9: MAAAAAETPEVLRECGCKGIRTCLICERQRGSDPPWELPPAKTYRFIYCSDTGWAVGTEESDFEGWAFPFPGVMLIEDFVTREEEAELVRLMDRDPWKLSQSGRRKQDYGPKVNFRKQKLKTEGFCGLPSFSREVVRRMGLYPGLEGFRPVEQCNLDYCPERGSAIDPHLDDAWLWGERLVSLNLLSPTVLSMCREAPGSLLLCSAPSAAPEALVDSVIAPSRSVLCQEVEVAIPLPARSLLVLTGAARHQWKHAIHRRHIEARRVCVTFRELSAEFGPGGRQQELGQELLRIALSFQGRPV
UniProt P53680: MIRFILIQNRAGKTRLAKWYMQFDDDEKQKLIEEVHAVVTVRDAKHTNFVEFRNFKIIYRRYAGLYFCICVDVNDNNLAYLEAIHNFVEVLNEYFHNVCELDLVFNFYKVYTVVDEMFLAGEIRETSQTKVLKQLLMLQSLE
UniProt Q9H8Y5: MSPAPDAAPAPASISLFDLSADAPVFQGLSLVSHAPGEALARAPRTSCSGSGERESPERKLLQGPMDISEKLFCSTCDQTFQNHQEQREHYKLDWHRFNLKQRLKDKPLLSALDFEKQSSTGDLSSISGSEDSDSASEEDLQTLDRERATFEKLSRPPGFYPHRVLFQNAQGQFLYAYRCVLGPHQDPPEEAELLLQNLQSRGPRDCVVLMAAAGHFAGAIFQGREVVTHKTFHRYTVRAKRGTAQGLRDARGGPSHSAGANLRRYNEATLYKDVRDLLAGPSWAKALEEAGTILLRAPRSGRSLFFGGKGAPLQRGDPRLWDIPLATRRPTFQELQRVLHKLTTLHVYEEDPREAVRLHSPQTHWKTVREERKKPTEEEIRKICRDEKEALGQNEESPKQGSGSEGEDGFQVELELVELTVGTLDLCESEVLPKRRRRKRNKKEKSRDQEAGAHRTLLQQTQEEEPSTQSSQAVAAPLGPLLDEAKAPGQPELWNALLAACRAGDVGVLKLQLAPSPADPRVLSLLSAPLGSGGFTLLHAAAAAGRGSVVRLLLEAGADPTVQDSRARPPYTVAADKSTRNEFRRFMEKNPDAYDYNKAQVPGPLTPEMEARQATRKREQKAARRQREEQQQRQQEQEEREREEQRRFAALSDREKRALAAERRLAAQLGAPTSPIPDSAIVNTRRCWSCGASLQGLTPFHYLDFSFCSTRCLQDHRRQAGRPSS
UniProt Q5VTE6: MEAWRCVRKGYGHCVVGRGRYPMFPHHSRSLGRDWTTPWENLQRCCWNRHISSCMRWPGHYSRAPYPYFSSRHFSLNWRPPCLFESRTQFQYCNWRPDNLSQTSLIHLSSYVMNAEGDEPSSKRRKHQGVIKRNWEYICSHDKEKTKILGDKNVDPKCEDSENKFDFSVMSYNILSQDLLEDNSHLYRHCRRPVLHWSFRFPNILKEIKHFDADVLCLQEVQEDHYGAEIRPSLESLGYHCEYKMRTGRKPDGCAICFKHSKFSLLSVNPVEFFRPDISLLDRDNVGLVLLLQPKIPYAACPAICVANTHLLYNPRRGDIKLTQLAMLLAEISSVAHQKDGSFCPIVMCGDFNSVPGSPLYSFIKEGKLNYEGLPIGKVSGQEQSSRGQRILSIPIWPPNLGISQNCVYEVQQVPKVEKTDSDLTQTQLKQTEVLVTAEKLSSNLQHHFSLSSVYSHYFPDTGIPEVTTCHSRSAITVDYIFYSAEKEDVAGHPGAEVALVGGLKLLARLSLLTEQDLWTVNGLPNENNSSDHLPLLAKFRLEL
UniProt Q02252: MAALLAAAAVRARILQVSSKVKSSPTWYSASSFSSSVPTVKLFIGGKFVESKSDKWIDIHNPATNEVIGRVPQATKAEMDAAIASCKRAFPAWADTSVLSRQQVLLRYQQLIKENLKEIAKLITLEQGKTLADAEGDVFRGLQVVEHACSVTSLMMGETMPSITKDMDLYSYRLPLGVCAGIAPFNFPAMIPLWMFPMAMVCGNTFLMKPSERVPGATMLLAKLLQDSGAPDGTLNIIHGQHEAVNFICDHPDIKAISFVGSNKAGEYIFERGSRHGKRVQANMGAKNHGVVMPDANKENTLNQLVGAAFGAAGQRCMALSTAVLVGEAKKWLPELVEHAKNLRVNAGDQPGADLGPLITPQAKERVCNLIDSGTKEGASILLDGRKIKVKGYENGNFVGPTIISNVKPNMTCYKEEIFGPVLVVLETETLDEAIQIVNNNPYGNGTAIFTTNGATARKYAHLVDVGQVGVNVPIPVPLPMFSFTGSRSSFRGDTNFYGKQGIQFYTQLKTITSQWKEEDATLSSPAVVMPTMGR
UniProt O15084: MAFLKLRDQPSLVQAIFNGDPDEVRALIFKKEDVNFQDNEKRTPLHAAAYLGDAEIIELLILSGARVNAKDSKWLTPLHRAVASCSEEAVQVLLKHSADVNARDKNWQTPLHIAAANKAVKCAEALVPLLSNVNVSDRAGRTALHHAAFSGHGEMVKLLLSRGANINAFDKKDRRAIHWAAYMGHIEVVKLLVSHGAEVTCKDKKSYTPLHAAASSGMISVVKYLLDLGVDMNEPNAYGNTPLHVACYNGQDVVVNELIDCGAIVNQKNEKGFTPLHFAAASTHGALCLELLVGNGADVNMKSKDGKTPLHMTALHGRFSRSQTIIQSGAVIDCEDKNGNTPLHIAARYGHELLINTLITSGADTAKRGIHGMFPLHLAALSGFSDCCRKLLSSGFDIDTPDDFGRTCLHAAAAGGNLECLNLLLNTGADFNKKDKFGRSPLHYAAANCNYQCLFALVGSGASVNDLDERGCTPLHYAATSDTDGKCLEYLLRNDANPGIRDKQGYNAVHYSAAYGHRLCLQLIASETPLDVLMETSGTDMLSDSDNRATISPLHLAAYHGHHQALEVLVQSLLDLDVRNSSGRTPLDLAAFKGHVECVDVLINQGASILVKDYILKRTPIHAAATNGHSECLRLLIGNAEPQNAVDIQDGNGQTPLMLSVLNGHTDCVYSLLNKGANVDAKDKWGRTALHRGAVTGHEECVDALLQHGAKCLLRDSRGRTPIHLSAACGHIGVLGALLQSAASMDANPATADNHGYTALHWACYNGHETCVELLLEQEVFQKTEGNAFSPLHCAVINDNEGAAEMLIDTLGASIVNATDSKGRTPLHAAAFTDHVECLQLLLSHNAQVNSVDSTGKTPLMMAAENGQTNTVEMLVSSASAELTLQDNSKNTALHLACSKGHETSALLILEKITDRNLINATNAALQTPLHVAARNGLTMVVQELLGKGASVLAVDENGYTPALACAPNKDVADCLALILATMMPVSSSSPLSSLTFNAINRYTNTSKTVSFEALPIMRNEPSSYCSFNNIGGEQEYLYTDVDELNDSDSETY
UniProt P56377: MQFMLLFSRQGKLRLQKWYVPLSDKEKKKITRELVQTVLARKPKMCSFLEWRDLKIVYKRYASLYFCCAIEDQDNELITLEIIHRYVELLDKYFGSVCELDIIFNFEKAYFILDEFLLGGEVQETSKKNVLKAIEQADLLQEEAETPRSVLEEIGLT

Columns and labels:
Assay in all cases: log2 fold change, soluble protein after heating vs DMSO (PISA); higher = thermal stabilisation; K562 lysate, 10 uM; active = over 0.2 and 3.5 SD of the protein, either way, in both replicates (recomputed)
ibrutinib = compound: C=CC(=O)N1CCC[C@@H](n2nc(-c3ccc(Oc4ccccc4)cc3)c3c(N)ncnc32)C1 [ibrutinib]
Outline: (§1)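 K562 pellets were dounce-homogenised in PBS pH 7.4 with 1 mM MgCl2, and the crude extract at 1 mg/mL protein was treated with 10 μM compound for 30 min. Aliquots were heated for 3 min across 48°C-58°C, pooled, and brought to 0.5% NP-40 at 4°C; soluble protein was the supernatant after 21,000xg for 90 min. Soluble protein was quantified by TMTpro 16plex LC-MS/MS with channel sums equalised, and reported as log2 fold change in thermal stability against DMSO controls, with values from duplicates.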

[1] = compound: CC(=O)c1cnc2ccc(-c3cc(Cl)c(O)c(Cl)c3)nc2c1N[C@H]1CC[C@H](CN(C)C)CC1
Outline: as §1

ralimetinib = compound: CC(C)(C)Cn1c(N)nc2ccc(-c3[nH]c(C(C)(C)C)nc3-c3ccc(F)cc3)nc21 [ralimetinib]
Outline: as §1

[2] = compound: CC(C)(O)CC(=O)NCCn1ccc2ncnc(Nc3ccc(Oc4cccc(C(F)(F)F)c4)c(Cl)c3)c21
Outline: as §1

[3] = compound: CC(C)C1=C2N=C(C=C(N2N=C1)NCC3=CC=CC=C3)NCCCCCCN
Outline: as §1

[4] = compound: CC1=C(C(CC(=O)N1)C2=CC=C(C=C2)C(F)(F)F)C(=O)NC3=C(C=C4C(=C3)C=NN4)F
Outline: as §1

[5] = compound: CC1=C(C2=C(C=C1)C(=O)C3=CC=CC=C3N2CCCN)C
Outline: as §1

[6] = compound: CC1=C(C=C(C=C1)NC(=O)C2=CC(=CC=C2)C(C)(C)C#N)NC3=CC4=C(C=C3)N=CN(C4=O)C
Outline: as §1

[7] = compound: CC1=C(C=C(C=C1)NC(=O)C2=CC(=CC=C2)N(C)C)NC(=O)C3=CC=C(C=C3)O
Outline: as §1

[8] = compound: CC1=CC=C(C=C1)SC2=C3C=C(SC3=CN=C2)C(=O)N
Outline: as §1

vemurafenib = compound: CCCS(=O)(=O)Nc1ccc(F)c(C(=O)c2c[nH]c3ncc(-c4ccc(Cl)cc4)cc23)c1F [vemurafenib]
Outline: as §1

[9] = compound: CCCS(=O)(=O)Nc1ccc(F)c(C(=O)c2c[nH]c3ncc(Cl)cc23)c1F
Outline: as §1

barasertib = compound: CCN(CCCOc1ccc2c(Nc3cc(CC(=O)Nc4cccc(F)c4)[nH]n3)ncnc2c1)CCOP(=O)(O)O [barasertib]
Outline: as §1

[10] = compound: CC[C@@H]1C(=O)N(C)c2cnc(Nc3ccc(C(=O)NC4CCN(C)CC4)cc3OC)nc2N1C1CCCC1
Outline: as §1

volasertib = compound: CC[C@@H]1C(=O)N(C)c2cnc(Nc3ccc(C(=O)N[C@H]4CC[C@H](N5CCN(CC6CC6)CC5)CC4)cc3OC)nc2N1C(C)C [volasertib]
Outline: as §1

[11] = compound: CCn1c(C(=O)N(C2CC2)C2CC2)cc2c3c(ncn3C)c(Nc3cc(C)n(C)n3)nc21
Outline: as §1

[12] = compound: CCn1cc(-c2ccnc3[nH]c(-c4cccc(CN(C)C)c4)cc23)c(-c2ccc(NC(=O)N(C)C)cc2)n1
Outline: as §1

[13] = compound: CN1CCC(CNc2ccc3ncc(-c4cccc(OC(F)(F)F)c4)n3n2)CC1
Outline: as §1

saracatinib = compound: CN1CCN(CCOc2cc(OC3CCOCC3)c3c(Nc4c(Cl)ccc5c4OCO5)ncnc3c2)CC1 [saracatinib]
Outline: as §1

sotrastaurin = compound: CN1CCN(c2nc(C3=C(c4c[nH]c5ccccc45)C(=O)NC3=O)c3ccccc3n2)CC1 [sotrastaurin]
Outline: as §1

Measured: log2 fold change

ALDH18A1 (UniProt P54886)
inactive: ibrutinib 0.006 | [1] 0.007 | ralimetinib 0.021 | [2] -0.015 | [3] -0.001 | [4] -0.02 | [5] 0.001 | [6] 0.022 | [7] 0.016 | [8] -0.018 | vemurafenib 0.052 | [9] -0.006 | barasertib 0.033 | [10] -0.054 | volasertib -0.033 | [11] 0.036 | [12] 0.009 | [13] -0.005 | saracatinib 0.003 | sotrastaurin 0.014

ALG8 (UniProt Q9BVK2)
active: [12] -0.316
inactive: ibrutinib 0.017 | [1] -0.013 | ralimetinib 0.013 | [2] 0.036 | [3] -0.028 | [4] -0.005 | [5] 0.054 | [6] 0.027 | [7] -0.011 | [8] -0.003 | vemurafenib -0.038 | [9] -0.013 | barasertib 0 | [10] -0.084 | volasertib 0.034 | [11] 0.045 | [13] 0.001 | saracatinib 0.005 | sotrastaurin 0.038

ANKHD1 isoform 6 (UniProt Q8IWZ3)
inactive: ibrutinib 0.009 | [1] -0.003 | ralimetinib 0.01 | [2] -0.018 | [3] 0.006 | [4] 0.025 | [5] -0.023 | [6] -0.071 | [7] 0.018 | [8] 0 | vemurafenib 0.019 | [9] 0.043 | barasertib 0.04 | [10] -0.011 | volasertib -0.04 | [11] 0.015 | [12] -0.126 | [13] 0.105 | saracatinib 0.025 | sotrastaurin 0.03

ALDOC (UniProt P09972)
inactive: ibrutinib 0.01 | [1] -0.021 | ralimetinib 0.003 | [2] 0.051 | [3] -0.015 | [4] -0.01 | [5] 0.034 | [6] 0.006 | [7] -0.003 | [8] -0.027 | vemurafenib -0.028 | [9] 0.065 | barasertib -0.071 | [10] 0.035 | volasertib 0.024 | [11] -0.013 | [12] 0.013 | [13] 0.007 | saracatinib -0.011 | sotrastaurin 0.001

AP3M1 (UniProt Q9Y2T2)
inactive: ibrutinib 0.002 | [1] -0.009 | ralimetinib 0.01 | [2] -0.021 | [3] 0.022 | [4] 0.013 | [5] -0.006 | [6] 0.007 | [7] 0.011 | [8] 0.007 | vemurafenib -0.03 | [9] 0.017 | barasertib 0.028 | [10] -0.01 | volasertib 0.016 | [11] 0.012 | [12] -0.063 | [13] -0.002 | saracatinib -0.013 | sotrastaurin -0.004

AP3B1 (UniProt O00203)
inactive: ibrutinib 0.028 | [1] -0.023 | ralimetinib 0 | [2] -0.001 | [3] 0.018 | [4] 0.016 | [5] -0.015 | [6] 0.003 | [7] 0.028 | [8] -0.003 | vemurafenib 0.024 | [9] -0.01 | barasertib 0.027 | [10] -0.014 | volasertib -0.008 | [11] -0.006 | [12] -0.043 | [13] 0.01 | saracatinib -0.023 | sotrastaurin -0.003

ANP32E (UniProt Q9BTT0)
inactive: ibrutinib 0.03 | [1] -0.009 | ralimetinib -0.015 | [2] 0.001 | [3] 0.022 | [4] -0.051 | [5] -0.072 | [6] 0.011 | [7] -0.065 | [8] 0.063 | vemurafenib -0.012 | [9] 0.004 | barasertib -0.064 | [10] 0.059 | volasertib -0.001 | [11] -0.011 | [12] -0.058 | [13] 0.024 | saracatinib 0.028 | sotrastaurin -0.023

ALKBH4 (UniProt Q9NXW9)
inactive: ibrutinib 0.076 | [1] 0.056 | ralimetinib 0.032 | [2] 0.003 | [3] -0.031 | [4] 0.031 | [5] -0.036 | [6] 0.004 | [7] -0.006 | [8] 0.002 | vemurafenib 0.061 | [9] 0.018 | barasertib 0.086 | [10] -0.133 | volasertib -0.068 | [11] 0.074 | [12] 0.025 | [13] 0 | saracatinib -0.019 | sotrastaurin 0.036

AP2S1 (UniProt P53680)
inactive: ibrutinib 0.015 | [1] 0.034 | ralimetinib 0.032 | [2] 0.087 | [3] -0.013 | [4] -0.04 | [5] 0.03 | [6] -0.003 | [7] -0.046 | [8] 0.004 | vemurafenib -0.07 | [9] -0.023 | barasertib -0.002 | [10] -0.073 | volasertib -0.041 | [11] 0.01 | [12] -0.056 | [13] 0.016 | saracatinib -0.025 | sotrastaurin 0.042

Quoted from above (two entries):
ALDOC (UniProt P09972)
inactive: ibrutinib 0.01 | [1] -0.021 | ralimetinib 0.003 | [2] 0.051 | [3] -0.015 | [4] -0.01 | [5] 0.034 | [6] 0.006 | [7] -0.003 | [8] -0.027 | vemurafenib -0.028 | [9] 0.065 | barasertib -0.071 | [10] 0.035 | volasertib 0.024 | [11] -0.013 | [12] 0.013 | [13] 0.007 | saracatinib -0.011 | sotrastaurin 0.001

AP3M1 (UniProt Q9Y2T2)
inactive: ibrutinib 0.002 | [1] -0.009 | ralimetinib 0.01 | [2] -0.021 | [3] 0.022 | [4] 0.013 | [5] -0.006 | [6] 0.007 | [7] 0.011 | [8] 0.007 | vemurafenib -0.03 | [9] 0.017 | barasertib 0.028 | [10] -0.01 | volasertib 0.016 | [11] 0.012 | [12] -0.063 | [13] -0.002 | saracatinib -0.013 | sotrastaurin -0.004

Remaining list, next part

ANKZF1 (UniProt Q9H8Y5)
inactive: ibrutinib 0.026 | [1] 0.018 | ralimetinib 0.031 | [2] -0.024 | [3] -0.028 | [4] 0.021 | [5] -0.012 | [6] 0.013 | [7] -0.019 | [8] 0.008 | vemurafenib 0.008 | [9] 0.004 | barasertib -0.08 | [10] -0.021 | volasertib -0.053 | [11] -0.001 | [12] 0.044 | [13] -0.065 | saracatinib 0.021 | sotrastaurin -0.003

ALDH1A2 (UniProt O94788)
inactive: ibrutinib 0.069 | [1] 0.031 | ralimetinib -0.009 | [2] -0.037 | [3] 0.015 | [4] -0.016 | [5] 0.022 | [6] -0.017 | [7] -0.016 | [8] -0.015 | vemurafenib -0.033 | [9] -0.001 | barasertib -0.046 | [10] -0.053 | volasertib -0.006 | [11] -0.015 | [12] -0.016 | [13] 0.095 | saracatinib 0.022 | sotrastaurin 0

ANGEL2 (UniProt Q5VTE6)
inactive: ibrutinib -0.09 | [1] -0.015 | ralimetinib -0.016 | [2] 0.006 | [3] 0.189 | [4] 0.027 | [5] -0.033 | [6] -0.065 | [7] 0.028 | [8] -0.053 | vemurafenib 0.006 | [9] 0.036 | barasertib -0.066 | [10] -0.04 | volasertib -0.054 | [11] -0.103 | [12] -0.068 | [13] 0.016 | saracatinib 0.001 | sotrastaurin 0.064

ALDH6A1 (UniProt Q02252)
inactive: ibrutinib 0.128 | [1] -0.006 | ralimetinib -0.064 | [2] -0.043 | [3] 0.008 | [4] -0.088 | [5] -0.191 | [6] 0.025 | [7] -0.066 | [8] -0.02 | vemurafenib 0.055 | [9] 0.027 | barasertib 0.043 | [10] -0.009 | volasertib -0.025 | [11] 0.015 | [12] -0.111 | [13] 0.022 | sotrastaurin -0.082
active: saracatinib -0.324

ANKRD28 (UniProt O15084)
inactive: ibrutinib -0.011 | [1] 0.023 | ralimetinib -0.01 | [2] -0.002 | [3] 0.017 | [4] -0.002 | [5] 0.007 | [6] 0.002 | [7] 0.003 | [8] 0.019 | vemurafenib -0.007 | [9] 0.008 | barasertib -0.006 | [10] -0.022 | volasertib -0.022 | [11] 0.02 | [12] 0.011 | [13] -0.031 | saracatinib 0.028 | sotrastaurin -0.024

AP1S2 (UniProt P56377)
inactive: ibrutinib 0.018 | [1] -0.006 | ralimetinib -0.039 | [2] -0.086 | [3] 0.092 | [4] 0.105 | [6] 0.04 | [7] 0.056 | [8] 0.048 | vemurafenib -0.033 | [9] 0.069 | barasertib 0.158 | [10] -0.239 | volasertib 0.009 | [11] 0.104 | [12] 0.223 | [13] -0.287 | sotrastaurin -0.029
